Data on three sequences can be found in patent publication US20100323904, “Transcription chip” (published 2010).

For part of these data: Results from cells or extracts need not show a direct contact. Tags and fusion partners may be left off the protein sequences shown. For part of these data: The exact form of at least one protein or probe is not confirmed. For part of these data: No signal at the amounts used counts as a negative.

For data set [1], the target named is T1, NF-kB p50 (UniProt P19838).
T1 sequence (looked up, limits assumed): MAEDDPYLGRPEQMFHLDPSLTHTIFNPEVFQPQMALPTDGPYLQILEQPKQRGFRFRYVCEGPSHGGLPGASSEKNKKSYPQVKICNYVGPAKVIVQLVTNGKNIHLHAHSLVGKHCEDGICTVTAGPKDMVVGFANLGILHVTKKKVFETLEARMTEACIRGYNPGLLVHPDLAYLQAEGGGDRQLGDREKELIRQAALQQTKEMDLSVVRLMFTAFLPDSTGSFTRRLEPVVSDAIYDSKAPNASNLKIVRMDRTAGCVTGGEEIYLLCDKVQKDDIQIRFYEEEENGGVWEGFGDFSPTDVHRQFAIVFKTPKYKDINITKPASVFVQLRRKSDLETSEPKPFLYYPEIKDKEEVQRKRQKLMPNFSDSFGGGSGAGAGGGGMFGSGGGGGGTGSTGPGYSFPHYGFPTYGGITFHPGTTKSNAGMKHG
The data set can be described thus: binding assay. Particulars: 5'-NH2(CH2)12 on top strand, immobilized on chip; array fluorescence immunoassay, 100 ng/mL; purified recombinant protein; protein details: Promega.

The target of data set [2] is T2, NF-kB p50 (endogenous, HeLa) (Homo sapiens) (UniProt P19838).
T2 sequence (looked up, limits assumed): T1 sequence (looked up, limits assumed)
The data set can be described thus: ELISA. Particulars: 5'-NH2(CH2)12 on top strand, immobilized on chip; HeLa extract; stronger signal after TNF-alpha stimulation; protein in an extract. In general terms: In an ELISA, binding on a coated surface is turned into a signal by an enzyme label.

Take “GGGAGCTGAGTAAGAACACTGTGTTCTATGCATGCAGAACACTGTGTTCTCATG / CATGAGAACAGACTGTTCTGCATGCATAGAACAGACTGTTCTTACTCAGCTCCC [GRE]”: the binding result in data set [1] is “no binding”. Consider “GGGAGCTGAGTAAGGTCACAGTGACCTATGCATGCAGGTCACAGTGACCTCATG / TCAGGTCACAGTGACCTGATCTCAGGTCACAGTGACCTTTCACGAGGTAC [ERE]”, for which the binding result in data set [1] is given as “no binding”. Take “GGGAGCTGAGTAGGGAAATTCCATGCATGCGGGAAATTCCCATG (double strand) [PRD II (two copies)]”: the binding result in data set [2] is reported as “binds”.
